According to the supplement of paper PMC12067093, “Discovery and optimisation of a covalent ligand for TRIM25 and its application to targeted protein ubiquitination” (Chemical Science, 2025):
The other results are listed elsewhere or left out.

Compound: CC1Cc2ccccc2N1C(=O)C1CCCN(C1)C(=O)CCl (mixture of isomers) [TRIM25 ligand 11 (diastereomer mixture)]
Assay: probe-labelled cysteine peptide fold change vs DMSO (competition) (log2 fold change); higher = less target engagement (more negative = stronger competition)
Conditions: THP-1, incubation time: 4 h
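Note: competitive chemoproteomic profiling in live THP-1 cells with an iodoacetamide desthiobiotin (IA-DTB) probe, comparing probe-labelled peptide intensities in compound-treated cells against DMSO-treated controls.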

DCTN3_O75935_140_LAQIHIQQQDQCVEITEESK (UniProt O75935)
probe-labelled cysteine peptide fold change (10 µM): -0.13
probe-labelled cysteine peptide fold change (50 µM): -0.142

CYBB_P04839_537_IGVFLCGPEALAETLSK (UniProt P04839)
probe-labelled cysteine peptide fold change (10 µM): 0.273
probe-labelled cysteine peptide fold change (50 µM): -0.00485

DCAF11_Q8TEB1_460_FSPIHSTGQQFIYSGCSTGK (UniProt Q8TEB1)
probe-labelled cysteine peptide fold change (10 µM): 0.245
probe-labelled cysteine peptide fold change (50 µM): -0.00752

CUL5_Q93034_51_QQWFDLFSDVHAVCLWDDKGPAK (UniProt Q93034)
probe-labelled cysteine peptide fold change (10 µM): -0.213
probe-labelled cysteine peptide fold change (50 µM): -0.115

CYFIP1_Q7L576_519_TVCDWETGHEPFNDPALRGEK (UniProt Q7L576)
probe-labelled cysteine peptide fold change (10 µM): -0.00997
probe-labelled cysteine peptide fold change (50 µM): 0.0425

CTR9_Q6PD62_817_QCSDLLSQAQYHVAR (UniProt Q6PD62)
probe-labelled cysteine peptide fold change (10 µM): 0.0603
probe-labelled cysteine peptide fold change (50 µM): 0.372

CTSC_P53634_136_NWACFTGK (UniProt P53634)
probe-labelled cysteine peptide fold change (10 µM): -0.0591
probe-labelled cysteine peptide fold change (50 µM): -0.0137

DACH1_Q9UI36_279_DFETLYNDCTNASSR (UniProt Q9UI36)
probe-labelled cysteine peptide fold change (10 µM): 0.337
probe-labelled cysteine peptide fold change (50 µM): 0.141

CYB5R1_Q9UHQ9_278+288_EHLPAPGDDVLVLLCGPPPMVQLACHPNLDK (UniProt Q9UHQ9)
probe-labelled cysteine peptide fold change (10 µM): 0.121
probe-labelled cysteine peptide fold change (50 µM): -0.203

DAZAP1_Q96EP5_63_DPNCVGTVLASR (UniProt Q96EP5)
probe-labelled cysteine peptide fold change (10 µM): 0.186
probe-labelled cysteine peptide fold change (50 µM): 0.402

DAXX_Q9UER7_106_AHSLFLASAEFCNILSR (UniProt Q9UER7)
probe-labelled cysteine peptide fold change (10 µM): 0.442
probe-labelled cysteine peptide fold change (50 µM): 1.38

DCAF1_Q9Y4B6_967_ERPSPCNGR (UniProt Q9Y4B6)
probe-labelled cysteine peptide fold change (10 µM): -0.0141
probe-labelled cysteine peptide fold change (50 µM): -0.144

CTTNBP2NL_Q9P2B4_186_QLSSMLVLECK (UniProt Q9P2B4)
probe-labelled cysteine peptide fold change (10 µM): 0.245
probe-labelled cysteine peptide fold change (50 µM): -0.0899

CYFIP1_Q7L576_1124_GPLPSNGVMHVDECVEFHR (UniProt Q7L576)
probe-labelled cysteine peptide fold change (10 µM): 0.0955
probe-labelled cysteine peptide fold change (50 µM): 0.0571

CTSB_P07858_179_GLVSGGLYESHVGCR (UniProt P07858)
probe-labelled cysteine peptide fold change (10 µM): 0.274
probe-labelled cysteine peptide fold change (50 µM): 0.0981

DBN1_Q16643_96_CACASHVAK (UniProt Q16643)
probe-labelled cysteine peptide fold change (10 µM): -0.0355
probe-labelled cysteine peptide fold change (50 µM): 0.0518

DALRD3_Q5D0E6_66_FDDGQVPEHLLHALACLQGPGVAPVLR (UniProt Q5D0E6)
probe-labelled cysteine peptide fold change (10 µM): 0.263
probe-labelled cysteine peptide fold change (50 µM): 0.397

DCTN1_Q14203_81_KYFTCDEGHGIFVR (UniProt Q14203)
probe-labelled cysteine peptide fold change (10 µM): -0.165
probe-labelled cysteine peptide fold change (50 µM): -0.0236

CYTH2_Q99418_322_KPNCFELYIPNNK (UniProt Q99418)
probe-labelled cysteine peptide fold change (10 µM): 0.19
probe-labelled cysteine peptide fold change (50 µM): 0.21

CTSG_P08311_207_AAFKGDSGGPLLCNNVAHGIVSYGK (UniProt P08311)
probe-labelled cysteine peptide fold change (10 µM): -0.115
probe-labelled cysteine peptide fold change (50 µM): -0.305

DCAF12L1_Q5VU92_117_CNTLFVVDVESGHIAR (UniProt Q5VU92)
probe-labelled cysteine peptide fold change (10 µM): 0.195
probe-labelled cysteine peptide fold change (50 µM): 0.138

CUL4A_Q13619_289_LEEEGDRVITYLDHSTQKPLIACVEK (UniProt Q13619)
probe-labelled cysteine peptide fold change (10 µM): -0.292
probe-labelled cysteine peptide fold change (50 µM): -0.273

CUL4B_Q13620_248_YNLEELYQAVENLCSYK (UniProt Q13620)
probe-labelled cysteine peptide fold change (10 µM): 0.033
probe-labelled cysteine peptide fold change (50 µM): 0.163

DARS2_Q6PI48_459_LECADLLETR (UniProt Q6PI48)
probe-labelled cysteine peptide fold change (10 µM): -0.0451
probe-labelled cysteine peptide fold change (50 µM): -0.0419

DBR1_Q9UK59_139_GHFECPPYNSSTIR (UniProt Q9UK59)
probe-labelled cysteine peptide fold change (10 µM): 0.0164
probe-labelled cysteine peptide fold change (50 µM): 0.188

CTTNBP2NL_Q9P2B4_312_GTATEPLMLMSVFCQTESFPAER (UniProt Q9P2B4)
probe-labelled cysteine peptide fold change (10 µM): 0.153
probe-labelled cysteine peptide fold change (50 µM): -0.18

DAP3_P51398_139_TLSLCHVIHFCAK (UniProt P51398)
probe-labelled cysteine peptide fold change (10 µM): 0.249
probe-labelled cysteine peptide fold change (50 µM): 0.208

CXXC1_Q9P0U4_181+187_RTEDCGHCDFCR (UniProt Q9P0U4)
probe-labelled cysteine peptide fold change (10 µM): -0.146
probe-labelled cysteine peptide fold change (50 µM): -0.188

DCAF4_Q8WV16_143_SQLGFLNVTNYCHLAHELR (UniProt Q8WV16)
probe-labelled cysteine peptide fold change (10 µM): 0.256
probe-labelled cysteine peptide fold change (50 µM): 0.254

DARS_P14868_130_IGSCTQQDVELHVQK (UniProt P14868)
probe-labelled cysteine peptide fold change (10 µM): 0.0673
probe-labelled cysteine peptide fold change (50 µM): 0.0472

CUL3_Q13618_316_TMCECMSSYLR (UniProt Q13618)
probe-labelled cysteine peptide fold change (10 µM): -0.0178
probe-labelled cysteine peptide fold change (50 µM): 0.135

CTR9_Q6PD62_196_TNPGCPAEVR (UniProt Q6PD62)
probe-labelled cysteine peptide fold change (10 µM): -0.0355
probe-labelled cysteine peptide fold change (50 µM): 0.0417

DCTN4_Q9UJW0_70_CANCFDCPGCMHTLSTR (UniProt Q9UJW0)
probe-labelled cysteine peptide fold change (10 µM): -0.000388
probe-labelled cysteine peptide fold change (50 µM): 0.0366
